Experimental data: patent publication US12181473B2 (priority 2017, dated 2024)
Some entries share one result that the patent states for a list of compounds. For at least one compound, name, drawing or mass did not settle the structure.

Test system: fumonisin B1 monoclonal antibody secreted from the hybridoma cell line Fm7A11
Type: binding, BALB/c mice

Molecule	Cross rates of response
T-2 toxin	lower than 0.1%
C[C@@H]1Cc2c(Cl)cc(C(=O)N[C@@H](Cc3ccccc3)C(=O)O)c(O)c2C(=O)O1 [ochratoxin]	lower than 0.1%
CC1=C[C@H]2O[C@@H]3[C@H](O)C[C@](C)([C@@]2(CO)[C@H](O)C1=O)[C@]31CO1 [vomitoxin]	lower than 0.1%
C[C@H]1CCCC(=O)CCC/C=C/c2cc(O)cc(O)c2C(=O)O1 [zearalenone]	lower than 0.1%
COc1cc2c(c3oc(=O)c4c(c13)CCC4=O)[C@@H]1C=CO[C@@H]1O2 [aflatoxin]	lower than 0.1%
